Some of the results follow. Plates or batches differ in their baseline, so values are only roughly comparable.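 Hits were defined as a z-score below −3.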
These molecules were tested against T1, YTHDF1 YTH domain (aa 365-554) (UniProt Q9BYJ9) (assay: tryptophan fluorescence intensity z-score (mean); higher = higher fluorescence, less quenching (negative = binding / quenching)). Conditions: 10 µM.
T1 sequence (whole entry): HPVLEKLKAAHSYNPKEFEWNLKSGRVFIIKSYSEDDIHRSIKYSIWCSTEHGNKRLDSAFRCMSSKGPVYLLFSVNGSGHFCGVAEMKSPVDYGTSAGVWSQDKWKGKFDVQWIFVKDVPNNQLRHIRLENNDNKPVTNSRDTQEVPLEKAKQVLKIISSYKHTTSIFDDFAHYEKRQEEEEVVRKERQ

Tryptophan fluorescence intensity z-score, inactive:
COC1=C[C@@H](C)[C@@H]2C[C@H]3OC(=O)C[C@H]4C(C)=C(OC)C(=O)[C@H]([C@@]2(C)C1=O)[C@@]34C (plate: M 17-18) 0.356
C[N+]1(C)CCC(OC(=O)C(O)(c2ccccc2)C2CCCC2)C1 (stereo unspecified) (plate: M 13-14) 0.29
CCCCCCCCCCCCCCCCCCOCC(O)CO (stereo unspecified) (plate: M 19-20) 0.633
COC(=O)c1cc(O)c(=O)c2c(O)c(O)ccc2c1 (plate: M 23-24) -0.723
N=C(NCCCCCCNC(=N)NC(=N)Nc1ccc(Cl)cc1)NC(=N)Nc1ccc(Cl)cc1 (plate: M 1-2) 0.613
COc1c2occc2cc2ccc(=O)oc12 (plate: M 3-4) -0.253
CC(=O)Oc1ccc2c(c1OC(C)=O)OCC1(O)Cc3c(cc(OC(C)=O)c(OC(C)=O)c3OC(C)=O)C21 (stereo unspecified) (plate: M 15-16) 0.34
CC(=O)OCC(=O)[C@@]1(O)[C@@H](C)C[C@H]2[C@@H]3CCC4=CC(=O)C=C[C@]4(C)[C@@]3(F)[C@@H](O)C[C@@]21C (plate: M 11-12) -0.514
O=C(O)c1cn(-c2ccc(F)cc2)c2cc(N3CCNCC3)c(F)cc2c1=O (plate: M 9-10) -0.261
CC[C@H](/C=C/[C@@H](C)[C@H]1CC[C@H]2[C@@H]3CC=C4C[C@@H](O)CC[C@]4(C)[C@H]3CC[C@]12C)C(C)C (plate: M 21-22) 0.119
CN1CCN(CC/C=C2/c3ccccc3Sc3ccc(S(=O)(=O)N(C)C)cc32)CC1 (plate: M 5-6) -0.501
C[C@H]1O[C@H](O[C@H]2[C@H](O)[C@@H](O)[C@@H](O[C@H]3[C@H](O)[C@@H](O)C(O)O[C@@H]3CO)O[C@@H]2CO)[C@H](O)[C@@H](O)[C@@H]1N[C@H]1C=C(CO)[C@@H](O)[C@H](O)[C@H]1O (stereo partly specified) (plate: M 9-10) -0.0167
CC(C)(CO)[C@@H](O)C(=O)NCCC(=O)NCCSSCCNC(=O)CCNC(=O)[C@H](O)C(C)(C)CO (plate: M 21-22) 0.86
COc1ccc(-c2cc(=O)c3ccccc3o2)cc1 (plate: M 15-16) 0.143
N=C(N)NC(=N)NCCc1ccccc1 (plate: M 11-12) 0.372
COc1ccc2c(=O)c(OC)c(-c3ccccc3)oc2c1 (plate: M 17-18) -0.905
CN1CCC(=C2c3ccccc3C=Cc3ccccc32)CC1 (plate: M 11-12) -0.144
CC(Cc1cccc(C(F)(F)F)c1)NCCOC(=O)c1ccccc1 (stereo unspecified) (plate: M 23-24) 0.252
CC(=O)S[C@@H]1CC2=CC(=O)CC[C@]2(C)[C@H]2CC[C@@]3(C)[C@@H](CC[C@@]34CCC(=O)O4)[C@H]12 (plate: M 5-6) -0.31
CCCc1cc(C(N)=S)ccn1 (plate: M 23-24) -0.219
NNCCc1ccccc1 (plate: M 3-4) -0.184
C=C1CC[C@H](O)C/C1=C/C=C1\CCC[C@]2(C)[C@@H]([C@H](C)CCCC(C)C)CC[C@@H]12 (plate: M 5-6) -0.157
CC(=O)OCC(=O)[C@@]1(O)CC[C@H]2[C@@H]3CCC4=CC(=O)CC[C@]4(C)[C@@]3(F)[C@@H](O)C[C@@]21C (plate: M 3-4) -0.107
O=C(O)CCCCCCCC(=O)O (plate: M 5-6) -0.128
CC(=O)O[C@@H]1C[C@H]2C(C)(C)C(=O)CC[C@]2(C)[C@H]2CC[C@@]3(C)[C@H](c4ccoc4)OC(=O)[C@H]4O[C@]43[C@@]21C (plate: M 13-14) 1.05
CC12CCC3C(CC3(C)C)C(C)(CCC1=O)O2 (stereo unspecified) (plate: M 21-22) 0.377
CC(=O)O[C@@H]1C[C@H]2C(C)(C)[C@@H](O)CC[C@]2(C)[C@H]2CC[C@@]3(C)[C@H](c4ccoc4)OC(=O)[C@H]4O[C@]43[C@@]21C [beta-DIHYDROGEDUNOL] (plate: M 13-14) -0.144
CCCCN(CCCC)CCCOC(=O)c1ccc(N)cc1 (plate: M 9-10) -0.182
Cc1ccc(C(=O)c2ccc(CC(=O)O)n2C)cc1 (plate: M 5-6) -0.187
FC(F)(F)C(Cl)Br (stereo unspecified) (plate: M 13-14) 1.17
O=C(O)CN1C(=O)c2cccc3cccc(c23)C1=O (plate: M 7-8) -0.649
CC(=O)OCC(=O)[C@@]1(O)CC[C@H]2[C@@H]3CCC4=CC(=O)CC[C@]4(C)[C@H]3[C@@H](O)C[C@@]21C (plate: M 3-4) 0.0264
Cc1ncc(C[n+]2csc(CCO)c2C)c(N)n1 (plate: M 11-12) -0.2
CC(C)c1c(C(=O)Nc2ccccc2)c(-c2ccccc2)c(-c2ccc(F)cc2)n1CC[C@@H](O)C[C@@H](O)CC(=O)O (plate: M 9-10) -0.269
NS(=O)(=O)c1cc(C2(O)NC(=O)c3ccccc32)ccc1Cl (stereo unspecified) (plate: M 1-2) 0.594
CCCCCCCCCCCCCCCC(=O)OC/C=C(C)/C=C/C=C(C)/C=C/C1=C(C)CCCC1(C)C (plate: M 9-10) -0.0302
CC(=O)[C@@]1(O)CC[C@H]2[C@@H]3C=C(Cl)C4=CC(=O)[C@@H]5C[C@@H]5[C@]4(C)[C@H]3CC[C@@]21C (plate: M 23-24) 0.339
Nc1[nH]cnc2ncnc1-2 (plate: M 5-6) 0.228
NCCc1c[nH]cn1 (plate: M 3-4) -0.215
OC(Cn1cncn1)(Cn1cncn1)c1ccc(F)cc1F (plate: M 13-14) 0.202
Cc1cn[nH]c1 (plate: M 11-12) -0.567
COc1c(-c2coc3cc4c(cc3c2=O)CC(O)C(C)(C)O4)ccc2c1C=CC(C)(C)O2 (stereo unspecified) (plate: M 15-16) 0.00314
C=CC(C)(O)CCC=C(C)CCC=C(C)C (mixture of isomers) (plate: M 19-20) 0.344
CCCc1ncc(C[n+]2ccccc2C)c(N)n1 (plate: M 1-2) 0.237
COc1ccc2c(C)cc(=O)oc2c1 (plate: M 17-18) 0.449
O=C1OC(c2ccc(O)cc2)(c2ccc(O)cc2)c2ccccc21 (plate: M 5-6) 0.137
COc1cc(OC)c2c(=O)cc(-c3ccccc3)oc2c1 (plate: M 17-18) 0.136
COC(=O)C[C@H]1C(C)(C)[C@@H](O)[C@@H]2CC3=C4C=C(OC)O[C@@H](c5ccoc5)[C@]4(C)CCC3[C@@]1(C)C2=O (stereo partly drawn) [3-DEOXO-3beta-HYDROXYMEXICANOLIDE16-ENOLETHER] (plate: M 13-14) 0.659
CC(C(=O)O)c1cccc(Oc2ccccc2)c1 (stereo unspecified) (plate: M 7-8) 0.532
O=C(O)CN(CCN(CC(=O)O)CC(=O)O)CC(=O)O.[Na+].[Na+].[Na+] (plate: M 3-4) 0.0918
CCn1cc(C(=O)O)c(=O)c2cc(F)c(N3CCNCC3)nc21 (plate: M 7-8) 0.0732
OC[C@@H](O)[C@@H](O)[C@H](O)[C@H](O)CO (plate: M 1-2) 0.448
C=CCc1ccc(O)c(OC)c1 (plate: M 3-4) 0.469
COc1cc(O)c(C(=O)/C=C/c2ccc(OC)c(O)c2)c(OC)c1 (plate: M 19-20) 0.0931
CC(CCC(=O)O)[C@H]1CCC2C3C[C@H](O)[C@@H]4C[C@H](O)CC[C@]4(C)C3CC[C@@]21C (stereo partly drawn) [alpha-HYDROXYDEOXYCHOLICACID] (plate: M 15-16) 0.214
C1N2CN3CN1CN(C2)C3 (plate: M 3-4) 0.407
O=C(O)C1=C[C@@H](O)[C@@H](O)[C@H](O)C1 (plate: M 19-20) 0.244
C=C(C)[C@@H]1CC[C@]2(C(=O)O)CC[C@]3(C)[C@H](CC[C@@H]4[C@@]5(C)CC[C@H](O)C(C)(C)[C@@H]5CC[C@]43C)[C@@H]12 (plate: M 19-20) 0.558
Oc1ccc2c(c1)OC[C@]1(O)Cc3cc(O)c(O)cc3[C@H]21 (plate: M 15-16) 0.653
c1ccc2c(c1)CCCC2C1=NCCN1 (stereo unspecified) (plate: M 5-6) 0.0244
CS(=O)(=O)c1ccc([C@@H](O)[C@@H](CF)NC(=O)C(Cl)Cl)cc1 (plate: M 11-12) -0.387
CCN(CC)CCCC(C)Nc1ccnc2cc(Cl)ccc12 (stereo unspecified) (plate: M 1-2) -0.506
O=c1cc(-c2ccc(O)cc2)oc2cc(O[C@@H]3O[C@H](CO)[C@@H](O)[C@H](O)[C@H]3O[C@@H]3OC[C@](O)(CO)[C@H]3O)cc(O)c12 (plate: M 17-18) 0.101
C[N+](C)(C)CCOP(=O)(O)OP(=O)([O-])OC[C@H]1O[C@@H](n2ccc(N)nc2=O)[C@H](O)[C@@H]1O (plate: M 9-10) -0.428
Nc1ccc(S(=O)(=O)NC(=O)c2ccccc2)cc1 (plate: M 5-6) 0.188
CC(C)c1nc(N(C)S(C)(=O)=O)nc(-c2ccc(F)cc2)c1/C=C/[C@@H](O)C[C@@H](O)CC(=O)O (plate: M 9-10) -0.191

4 consecutive compounds already listed, for reference:
Tryptophan fluorescence intensity z-score, inactive:
Cc1cn[nH]c1 (plate: M 11-12) -0.567
COc1c(-c2coc3cc4c(cc3c2=O)CC(O)C(C)(C)O4)ccc2c1C=CC(C)(C)O2 (stereo unspecified) (plate: M 15-16) 0.00314
C=CC(C)(O)CCC=C(C)CCC=C(C)C (mixture of isomers) (plate: M 19-20) 0.344
CCCc1ncc(C[n+]2ccccc2C)c(N)n1 (plate: M 1-2) 0.237
